Among the data in publication PMC5117207 are binding values, retold here.

Among the targets are GST-Hsp90 N(9-236); GST-Hsp90 C(626-732); GST-Hsp90M(272-617).
What all share (assay): pull-down; GST-HSP90 fragments on glutathione-agarose beads incubated overnight at 4°C with purified His-tagged GR-LBD or REV-ERBα; eluted with 10 mM reduced glutathione; western blot with anti-GST and anti-His antibodies; both purified

Results are given in words; binding and its absence hold for the method and conditions named. For part of these data: Binding calls can cover weak binding; strength is not graded here. Sequences can lack the tags named with a protein.

B1: full-length REV-ERBα, His-tagged (protein, UniProt Q3UV55 1-615)
chain: MTTLDSNNNTGGVITYIGSSGSSPSRTSPESLYSDSSNGSFQSLTQGCPTYFPPSPTGSLTQDPARSFGSAPPSLSDDSSPSSASSSSSSSSSSFYNGSPPGSLQVAMEDSSRVSPSKGTSNITKLNGMVLLCKVCGDVASGFHYGVHACEGCKGFFRRSIQQNIQYKRCLKNENCSIVRINRNRCQQCRFKKCLSVGMSRDAVRFGRIPKREKQRMLAEMQSAMNLANNQLSSLCPLETSPTPHPTSGSMGPSPPPAPAPTPLVGFSQFPQQLTPPRSPSPEPTMEDVISQVARAHREIFTYAHDKLGTSPGNFNANHASGSPSATTPHRWESQGCPSAPNDNNLLAAQRHNEALNGLRQGPSSYPPTWPSGPTHHSCHQPNSNGHRLCPTHVYSAPEGEAPANSLRQGNTKNVLLACPMNMYPHGRSGRTVQEIWEDFSMSFTPAVREVVEFAKHIPGFRDLSQHDQVTLLKAGTFEVLMVRFASLFNVKDQTVMFLSRTTYSLQELGAMGMGDLLNAMFDFSEKLNSLALTEEELGLFTAVVLVSADRSGMENSASVEQLQETLLRALRALVLKNRPSETSRFTKLLLKLPDLRTLNNMHSEKLLSFRVDAQ
As to B1, the binding entry with GST-Hsp90 N(9-236) was “no binding”; with GST-Hsp90 C(626-732), “binds”; with GST-Hsp90M(272-617) it was “no binding”.
